Measured values published in patent US6869948B1 (Boehringer Ingelheim Pharma KG, priority 1998, dated 2005).
Structures can show the parent of a compound that is named as a salt. For at least one compound, name, drawing or mass did not settle the structure.

Format: physicochemical
Experimental: Under ambient conditions the monohydrate of the meloxicam-meglumin salt is the stable modification, but at a relative humidity of over 75% a dihydrate is formed. The enclosed water can only be eliminated from the dihydrate under conditions of very great dryness. […] By intensive drying over a fairly long period the anhydrous form changes more and more into an amorphous form and after 24 h at 100° C. the material is totally amorphous.
The relevant parameters of the dehydration process are the temperature and duration of dehydration, the influence of which were observed by X-ray powder diffraction. The longer the dehydration process lasts, the less crystalline is the resulting material. […] The X-ray powder diffraction diagrams obtained after 1 hour at 80° C., 15 hours at 70° C., 20 hours at 80° C. and 24 hours at 100° C. are shown in FIG. 7.

Cc1cnc(NC(=O)C2=C(O)c3ccccc3S(=O)(=O)N2C)s1 [Sodium salt, meloxicam sodium salt]
hygroscopic properties: no hygroscopic properties
